# Source: PubChem BioAssay AID2551 (National Center for Advancing Translational Sciences (NCATS), 2010)
# The chains behind the UniProt entries cited, without tags or fusion partners. Where a name states a change or a piece, a line headed by the entry shows the natural chain unless it says otherwise.
# UniProt P51450: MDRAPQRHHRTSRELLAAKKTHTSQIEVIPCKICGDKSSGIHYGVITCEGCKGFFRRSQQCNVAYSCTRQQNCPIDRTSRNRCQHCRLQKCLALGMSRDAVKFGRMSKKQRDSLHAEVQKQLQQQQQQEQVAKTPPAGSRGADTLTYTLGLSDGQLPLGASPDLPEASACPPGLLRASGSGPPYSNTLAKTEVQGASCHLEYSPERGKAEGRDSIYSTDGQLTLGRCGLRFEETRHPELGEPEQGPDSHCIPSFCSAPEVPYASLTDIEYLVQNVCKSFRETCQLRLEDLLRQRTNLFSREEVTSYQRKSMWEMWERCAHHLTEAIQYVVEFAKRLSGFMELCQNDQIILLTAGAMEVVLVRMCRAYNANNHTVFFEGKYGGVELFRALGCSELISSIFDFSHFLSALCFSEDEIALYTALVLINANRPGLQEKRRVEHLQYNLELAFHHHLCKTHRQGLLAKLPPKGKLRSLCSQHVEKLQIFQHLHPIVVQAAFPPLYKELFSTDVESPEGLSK
# In all, about 310,000 compounds went through this assay and about 17,000 (5.5%) were called active. Inconclusive means that the source gave no clear call. Such entries were picked first, then a sample of the others. Calls follow the shape of the dose curve; as a rule, active = well fitted inhibition curve with a large enough effect; inconclusive = small, poorly fitted or top-dose-only effect, or effect the other way; inactive = no such curve, though single readings can be large or run the other way. Potencies beside an inconclusive call are fits to weak or partial responses and may not hold up.
# Target: Nuclear receptor ROR-gamma (Mus musculus) (UniProt P51450)
# Assay: qHTS for inhibitors of ROR gamma transcriptional activity; also: nearly all actives have a fitted effect of over 60% in size
# Settings: Drosophila S2 Gal4-RORgamma UAS-luciferase reporter, 20 h; activity change, negative = inhibition: at 53.6 µM (top of the series)
# How it was run: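 In this cell-based reporter format, copper sulfate (700 uM final) drives Gal4–ROR gamma fusion expression from a metallothionein promoter in Drosophila Schneider cells; compounds preincubated 1 hr, reporter read after 20 hr at ambient temperature.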
# % is scaled to controls: 0 for no effect and ±100 for the full control effect; potency is read from the fitted curve at half-maximal effect.
Structure (SMILES),"activity change, negative = inhibition",Potency
Cc1cccc(N2CCN(C(=O)c3cc(S(=O)(=O)N4CCOCC4)cn3C)CC2)c1C,inactive: -1.96%,–
CCOC(=O)N1CCc2c(sc(NC(=O)c3ccc(S(=O)(=O)N4CCCC4)cc3)c2C#N)C1,–,"inconclusive: 12.6 µM [activator, partial curve]"
COC(=O)N/N=C\c1cc(Br)ccc1OCc1ccccc1,–,"inconclusive: 5.62 µM [activator, partial curve]"
CN1CCN(C(=S)NC(=O)c2ccc(S(=O)(=O)N3CCOCC3)cc2)CC1,–,active: 10 µM
O=[N+]([O-])c1ccccc1-c1ccc(/C=N/n2cnnc2)o1,inactive: 16.5%,–
O=C(Sc1cccc2cccnc12)c1ccc(F)cc1,–,active: 1.12 µM
CCN(CC)c1ccc(NC(=O)c2ccco2)c(C)c1,inactive: 3%,–
O=C(Nc1ccc(Cl)cc1)Nc1nnc(CSCc2ccc(Cl)cc2)s1,inactive: 40.8%,–
COC(=O)c1c(C)oc2ccc(N(C(=O)c3ccncc3)S(=O)(=O)c3ccc(C)cc3C)cc12,–,"inconclusive: 28.2 µM [inhibitor, single point]"
NNc1nc(Nc2ccccc2)nc(Nc2ccccc2)n1,–,active: 15.8 µM
CC1(C)CC(N2CCN(CCO)CC2)=CC(=S)N1,inactive: 7.12%,–
Clc1ccc(N/N=C/c2cccnc2)cc1,–,"inconclusive: 10 µM [activator, partial curve]"
O=C(c1cc(-c2ccc(Cl)cc2Cl)on1)N1CCOCC1,–,active: 10 µM
O=C(N/N=C/c1ccc(OC(=O)c2ccccc2)c([N+](=O)[O-])c1)c1ccc(O)cc1,–,active: 8.91 µM
CC(C)c1ccccc1NS(=O)(=O)c1cccs1,inactive: -41%,–
COC(=O)c1ccccc1NC1OC(=O)c2ccccc21 (centres undefined),–,"inconclusive: 35.5 µM [inhibitor, single point]"
CN(CC(=O)NCCC1=CCCCC1)S(=O)(=O)c1ccc2c(c1)c(=O)n(C)c(=O)n2C,inactive: -13%,–
CC(Nc1nc(N2CCN(S(C)(=O)=O)CC2)nc2ccccc12)c1ccccc1 (centres undefined),–,"inconclusive: 12.6 µM [activator, partial curve]"
CC(C)(C)c1ccccc1OCCOCCSc1ncccn1,–,"inconclusive: 0.355 µM [inhibitor, single point]"
COc1cccc(NC(=O)C2C3CCC4C(CCC32)C4(Cl)Cl)c1 (centres undefined),–,"inconclusive: 15.8 µM [activator, single point]"
COc1ccc(Cc2nc3ccc(C(=O)NCC4COCCO4)cc3o2)cc1 (centres undefined),–,"inconclusive: 6.31 µM [activator, single point]"
COc1cccc(NC(=S)NNC(=O)Cn2nc(C(F)(F)F)cc2C)c1,–,"inconclusive: 0.501 µM [inhibitor, full curve, poor fit]"
C/C=C1\COC(C(=O)NCCOCCO)(C(F)(F)F)C=C1C=C1CCCCC1 (centres undefined),–,"inconclusive: 35.5 µM [inhibitor, single point]"
CC(NC(=S)NNS(=O)(=O)c1cccc([N+](=O)[O-])c1)c1ccccc1 (centres undefined),–,active: 7.08 µM
O=C1Nc2cccnc2N(C(=O)CCl)c2ccccc21,–,"inconclusive: 1.12 µM [inhibitor, partial curve]"
Cc1cc(C=O)c(C)n1-c1sc2c(c1C(=O)O)CCCC2,inactive: 2.66%,–
COc1cc(NC(=O)NC2Cc3ccccc3C2)cc(OC)c1,–,"inconclusive: 35.5 µM [activator, single point]"

Structure (SMILES),"activity change, negative = inhibition",Potency
Cc1nc(SCC(=O)NC(C)(C#N)C2CC2)c2c(-c3cccs3)csc2n1 (centres undefined),–,"inconclusive: 11.2 µM [inhibitor, single point]"
NC(=O)c1cc([N+](=O)[O-])ccc1NCCN1C(=O)c2ccccc2C1=O,inactive: -11.4%,–
Clc1ccc(Cn2ncc3c(N4CCCCC4)ncnc32)cc1,–,"inconclusive: 35.5 µM [inhibitor, single point]"
CSc1ccc(S(=O)(=O)N2CCC(C(=O)NCCN3CCOCC3)CC2)cc1,inactive: -12.8%,–
Cc1ccc(-c2cc(C(=O)Nc3ccc(S(=O)(=O)Nc4ncccn4)cc3)[nH]n2)c(O)c1C,–,"inconclusive: 1.78 µM [inhibitor, single point]"
CCN(CC)c1ccc(NC(=O)C(C)C)cc1,inactive: 8.59%,–
CC(C)NC(=O)c1ccc(CN2CCC(Cc3ccccc3)CC2)cc1,inactive: 3.32%,–
Cc1ccc(Nc2nc(N)nc(CN3CCN(c4ccccc4F)CC3)n2)cc1,–,active: 11.2 µM
CC(=O)Nc1sc(/C(C#N)=C\c2cccc(Cl)c2)nc1-c1ccc(C)cc1,inactive: -9.04%,–
C/C(=N\NC(=O)c1cccc([N+](=O)[O-])c1)c1cccs1,–,active: 3.98 µM
O=[N+]([O-])c1cc2c(cc1/C=N\NS(=O)(=O)c1ccccc1)OCO2,–,"inconclusive: 12.6 µM [inhibitor, partial curve, poor fit]"
O=C(Nc1nc(-c2ccc(F)cc2)cs1)c1cnccn1,–,active: 2.24 µM
CC(C)(C)n1nnnc1C(c1cccs1)N(Cc1cccnc1)Cc1ccccc1Cl (centres undefined),–,"inconclusive: 22.4 µM [inhibitor, single point]"
COc1ccc2nc(NC(=S)NC(=O)c3ccco3)sc2c1,–,active: 1.12 µM
Cc1cccc(C)c1NC(=O)CCCn1nc(C)c2c(C)n(-c3ccccc3)nc2c1=O,inactive: 7.24%,–
CCn1c(/C=C/c2cc(Br)ccc2O)nc2ccccc2c1=O,–,"inconclusive: 31.6 µM [activator, single point]"
CCSc1nsc(NC(=O)Nc2ccc(F)cc2F)n1,–,"inconclusive: 3.16 µM [inhibitor, single point]"
CC(=O)c1ccc(NS(=O)(=O)c2ccc3ccccc3c2)cc1,–,"inconclusive: 28.2 µM [activator, single point]"
CC(C)(C)c1nc(N2CCN(C(=O)c3ccco3)CC2)c2nnn(Cc3ccccc3)c2n1,–,"inconclusive: 35.5 µM [inhibitor, single point]"
O=C(NC1CC1)C1CCN(c2ncnc3c2sc2cccc(F)c23)CC1,–,"inconclusive: 1.78 µM [inhibitor, partial curve]"
Cc1cc(C)nc(Nc2n[nH]c(-c3ccccc3N)n2)n1,–,active: 10 µM
Cn1cnnc1SCc1ccc(C(=O)N=Nc2c(O)n(Cc3ccc(Cl)cc3)c3ccccc23)cc1,–,"inconclusive: 7.08 µM [activator, full curve]"
CSc1ccccc1OCc1cc(C(=O)N2CCc3c(Cl)cccc3C2)no1,–,active: 12.6 µM
O=C(Cn1cnc2c(cnn2-c2ccccc2)c1=O)Nc1cc(S(=O)(=O)N2CCOCC2)ccc1Cl,–,"inconclusive: 20 µM [activator, single point]"
c1ccc(CCc2nc(-c3cccnc3)no2)cc1,inactive: 12.8%,–
CN(C)C(=O)c1cccn(Cc2ccc(C(F)(F)F)cc2)c1=O,inactive: -0.28%,–
Cc1ccc(NS(C)(=O)=O)c(C(=O)c2ccccc2)c1,inactive: 3.81%,–

Structure (SMILES),"activity change, negative = inhibition",Potency
O=C(Cc1ccc([N+](=O)[O-])cc1)NCc1ccc2c(c1)OCO2,inactive: 26.6%,–
O=C(CNC(=O)c1cccs1)OCC(=O)c1ccc(Br)cc1,–,"inconclusive: 6.31 µM [inhibitor, single point]"
S=C(N/N=C/c1cccc2ccccc12)Nc1cccc(Cl)c1,–,active: 0.447 µM
Cc1ccc(Nc2c3c(nc4ncnn24)CCC3)cc1,–,"inconclusive: 22.4 µM [inhibitor, single point]"
CCC1=C(OC(=O)N(CC)CC)N2C(=O)OC(=NCc3ccccc3)[C@]2(C)[C@H]2C1=CC[C@H]1C(=O)NC(=O)[C@H]12,–,"inconclusive: 22.4 µM [activator, partial curve, poor fit]"
COc1ccc(OC)c(/C=C2\SC(=S)N(Cc3cccnc3)C2=O)c1,–,"inconclusive: 22.4 µM [inhibitor, single point]"
Cc1ccccc1NC(=O)NC1(C(=O)N2CCC(O)CC2)CCCCC1,–,"inconclusive: 22.4 µM [inhibitor, single point]"
Cn1c(N)c(C(=O)COC(=O)c2ccc(Cl)c(S(=O)(=O)N3CCCCC3)c2)c(=O)n(C)c1=O,inactive: -8.04%,–
COc1cccc(NC(=O)CSc2nc3ccccc3cc2Cc2ccccc2)c1,–,"inconclusive: 11.2 µM [activator, partial curve]"
Cc1ccc2c(c1)N(C(=O)CCC(=O)NCc1cccc(Br)c1)CC(C)O2 (centres undefined),–,"inconclusive: 35.5 µM [activator, single point]"
CCOC(=O)C1CCN(S(=O)(=O)c2cc(C(=O)N3CCCCC3)ccc2OC)CC1,inactive: -8.85%,–
O=C(O)c1ccc(CN2C(=O)CSC2=S)cc1,–,active: 10 µM
CCOc1ccc(NC(=O)c2ccc3c(SCC(=O)O)c4c(nc3c2)CCCC4)cc1,inactive: 18.3%,–
COCCNC(=O)c1cnn2c(C(F)F)cc(-c3ccccc3)nc12,inactive: 0.0136%,–
O=c1cc2c(n[nH]1)-c1ccccc1CC2,inactive: -17.5%,–
FC(F)(F)c1ccc(N2CCN(c3ncnc4c3nnn4Cc3ccccc3Cl)CC2)cc1,–,"inconclusive: 3.16 µM [activator, partial curve]"
CSc1nc2sc3c(c2c(=O)n1CC(C)C)CC(C)(C)OC3,inactive: 12.3%,–
COc1ccc(C2CC(c3cccs3)=NN2C(=O)c2ccc(Br)o2)cc1 (centres undefined),inactive: 14.9%,–
CC1(C)CC(=O)C(CC(=O)NC2CCCc3ccccc32)C(=O)C1 (centres undefined),inactive: 13.3%,–
COc1ccc2cnnc(SCC(=O)Nc3ccccc3)c2c1OC,inactive: 33.5%,–
O=C(Nc1nncs1)c1cccc(S(=O)(=O)N2CCc3ccccc32)c1,inactive: -8.82%,–
COc1cccc(CNC(=O)c2cc3c(C)nc4ccccc4c3o2)c1,inactive: 32%,–
CCCCN1C(=S)NC[C@@H]1Cc1cccc2ccccc12,–,active: 3.16 µM
CN1/C(=C\C=N\NC(=O)c2ccc(O)cc2)C(C)(C)c2ccccc21,–,active: 4.47 µM
COc1cc(C(=O)N(Cc2cc3ccccc3[nH]c2=O)CC2CCCO2)cc(OC)c1OC (centres undefined),–,"inconclusive: 35.5 µM [inhibitor, single point]"

# Single entries from above.
# COc1cc(C(=O)N(Cc2cc3ccccc3[nH]c2=O)CC2CCCO2)cc(OC)c1OC (centres undefined) | Potency: inconclusive: 35.5 µM [inhibitor, single point]
# CCSc1nsc(NC(=O)Nc2ccc(F)cc2F)n1 | Potency: inconclusive: 3.16 µM [inhibitor, single point]
# Cc1cccc(N2CCN(C(=O)c3cc(S(=O)(=O)N4CCOCC4)cn3C)CC2)c1C | activity change, negative = inhibition: inactive: -1.96%
